Results taken from patent US20080292639A1.
Results are given in words; binding and its absence hold for the method and conditions named. Some binding calls cover weakened binding; strength is not graded here.

Chains of the proteins cited; added tags and fusions are not shown. Residues count along the entry.
UniProt P05067, residues 672-713: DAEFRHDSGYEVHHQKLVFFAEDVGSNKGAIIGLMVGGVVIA

Legend:
[1] = target: amyloid plaques in unfixed brain sections of a human AD patient (human) (UniProt P05067); assay: immunohistochemistry on unfixed brain sections
[2] = target: native amyloid plaques in unfixed brain sections of Tg2576 APP transgenic mice (human) (UniProt P05067); assay: immunohistochemistry on unfixed brain sections
[3] = target: amyloid plaques in unfixed brain sections of a human AD patient (human) (UniProt P05067); assay: immunohistochemistry on unfixed human AD brain sections
[4] = target: native amyloid plaques in unfixed brain sections of Tg2576 APP transgenic mice (human) (UniProt P05067); assay: immunohistochemistry on unfixed Tg2576 mouse brain sections
[5] = target: native amyloid plaques in unfixed brain sections of Tg2576 APP transgenic mice (human) (UniProt P05067); assay: immunohistochemistry on unfixed Tg2576 mouse brain sections, relative score

| binding [1] | binding [2] | binding [3] | binding [4] | binding [5] | Binder |
| --- | --- | --- | --- | --- | --- |
| binds | binds | binds | binds | – | murine monoclonal anti-amyloid antibody 2.1 (antibody, mouse IgG1, kappa, V domains shown) VH: QVTLKESGPGILKPSQTLSLTCSFSGFSLRTSGMGVGWIRQPSGKGLEWLAHIWWDDDKSYNPSLKSQLTISKDTSRNQVFLKITSVDTADTATYYCARRNYYYDDYFAYWGQGTTLTVSS VL: DVLMTQTPLSLPVSLGDQASISCRSSQSIVHSNGNTYLEWYLQKPGQSPKLLIYKVSNRFSGVPDRFSGSGSGTDFTLKISRVEAEDLGVYYCFQGSHVPLTFGAGTKLELKR |
| – | – | – | – | binds | 2.1 B (antibody, human IgG1, kappa, V domains shown) VH: QVTLRESGPALVKPTQTLTLTCTFSGFSLRTSGMGVGWIRQPPGKALEWLAHIWWDDDKSYNPSLKSQLTISKDTSKNQVVLTMTNMDPVDTATYYCARRNYYYDDYFAYWGQGTLVTVSS VL: DVVMTQSPLSLPVTLGQPASISCRSSQSIVHSNGNTYLEWFVQRPGQSPRVLIYKVSNRFSGVPDRFSGSGSGTDFTLKISRVEAEDVGVYYCFQGSHVPLTFGGGTKLEIKR |
